These are yes or no findings as the source states them, for the method shown. For some of these results: Binding seen in cells or lysates may run through a third protein. Some entries that bind do so weakly or less than the wild type. Sequences can lack the tags named with a protein. Values belong to the binder of their own block, whether it stands above or below them.
Key:
[1] = target: Ded1 (DEAD-box RNA helicase Ded1) (S. cerevisiae (endogenous in yeast)) (UniProt P06634); test: co-IP
[2] = target: Recombinant Ded1-His (S. cerevisiae) (UniProt P06634); test: co-IP

The chains behind the UniProt entries cited, without tags or fusion partners.
UniProt P06634: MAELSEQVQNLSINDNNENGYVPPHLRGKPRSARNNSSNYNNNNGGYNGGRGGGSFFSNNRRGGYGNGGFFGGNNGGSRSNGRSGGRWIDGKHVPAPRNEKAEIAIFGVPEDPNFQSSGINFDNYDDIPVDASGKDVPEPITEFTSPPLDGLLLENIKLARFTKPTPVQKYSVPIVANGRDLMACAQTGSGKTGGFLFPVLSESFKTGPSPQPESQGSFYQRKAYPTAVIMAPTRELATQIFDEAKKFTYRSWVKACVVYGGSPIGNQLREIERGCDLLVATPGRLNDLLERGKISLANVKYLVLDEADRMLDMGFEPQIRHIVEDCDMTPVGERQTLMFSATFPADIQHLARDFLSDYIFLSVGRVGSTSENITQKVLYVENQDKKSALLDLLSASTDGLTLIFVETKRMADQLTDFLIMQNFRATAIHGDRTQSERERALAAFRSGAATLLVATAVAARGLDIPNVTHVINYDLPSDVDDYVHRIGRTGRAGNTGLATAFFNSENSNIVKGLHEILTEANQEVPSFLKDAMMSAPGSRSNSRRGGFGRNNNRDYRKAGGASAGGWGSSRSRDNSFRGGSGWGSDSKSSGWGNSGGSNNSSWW

binding [1]: binds
B1: HA-tagged SRP14 (protein, UniProt P38985 1-146)
chain: MANTGCLSPGAFLSKVPEFFQTANEKHITVRLTAKRLIEHDPVEGNLEFDSTNHPDYDVSKKASEISVSSRSDREYPLLIRMSYGSHDKKTKCSTVVKASELDQFWQEYSSVFKGGMQNLIKKKKKKSKNGTISKTGKKNKVAKKN

binding [1]: binds
B2: HA-tagged SRP101 (receptor, UniProt P32916 1-621)
chain: MFDQLAVFTPQGQVLYQYNCLGKKFSEIQINSFISQLITSPVTRKESVANANTDGFDFNLLTINSEHKNSPSFNALFYLNKQPELYFVVTFAEQTLELNQETQQTLALVLKLWNSLHLSESILKNRQGQNEKNKHNYVDILQGIEDDLKKFEQYFRIKYEESIKQDHINPDNFTKNGSVPQSHNKNTKKKLRDTKGKKQSTGNVGSGRKWGRDGGMLDEMNHEDAAKLDFSSSNSHNSSQVALDSTINKDSFGDRTEGGDFLIKEIDDLLSSHKDEITSGNEAKNSGYVSTAFGFLQKHVLGNKTINESDLKSVLEKLTQQLITKNVAPEAADYLTQQVSHDLVGSKTANWTSVENTARESLTKALTQILTPGVSVDLLREIQSKRSKKDEEGKCDPYVFSIVGVNGVGKSTNLSKLAFWLLQNNFKVLIVACDTFRSGAVEQLRVHVENLAQLMDDSHVRGSKNKRGKTGNDYVELFEAGYGGSDLVTKIAKQAIKYSRDQNFDIVLMDTAGRRHNDPTLMSPLKSFADQAKPDKIIMVGEALVGTDSVQQAKNFNDAFGKGRNLDFFIISKCDTVGEMLGTMVNMVYATGIPILFVGVGQTYTDLRTLSVKWAVNTLMS

binding [1]: binds
B3: HA-tagged Sec65 (protein, UniProt P29478 1-273)
chain: MPRLEEIDDFNDIDDLDMELAELDPSLRTPIAPKITPKVVRSQDQENPAFLPGTNNNSNSNNNSSNEKEQLSFINPKTGKVERSEAISKKDLEEVKRFQVLYPCYFDINRSHKEGRRVPKELAVENPLAKTMADAVRELGILCIFEGEKCHPQDFGNPGRIRVLFKENGQLIGAATKFKGGKRQLMKAVGEYMKRHPTTIESLREIPYGPDFDNIEFKKIPRVKGFKMNEIVPLHSPFLMGHPMTKSVYETPKITAAEKSFKPPKNKYKVVRR

binding [2]: binds weakly
B4: Recombinant His-tagged SRP21 (protein, UniProt P32342 1-167)
chain: MSVKPIDNYITNSVRLFEVNPSQTLFSISYKPPTQKTDTKVSFRTHNSHLSLNYKFTTNKSKDVSRLLSALGPRGVSITPGKIEKIAQSKKKNNKIKESSKKIKGKSIQDIVGLATLIVNTDVEKSDPAAKKTATEPKQKANAVQNNNGNSAASKKKKNKNKGKKKR
